Measured values: article PMC7948974, “Heme oxygenase-1 affects cytochrome P450 function through the formation of heteromeric complexes: Interactions between CYP1A2 and heme oxygenase-1” (The Journal of Biological Chemistry, 2020)
No constants are given. Whether binding was seen depends on the method and setting. Binding seen in cells or lysates may run through a third protein. Some entries that bind do so weakly or less than the wild type. Sequences can lack the tags named with a protein.

Chains of the proteins cited; added tags and fusions are not shown.
UniProt P10635: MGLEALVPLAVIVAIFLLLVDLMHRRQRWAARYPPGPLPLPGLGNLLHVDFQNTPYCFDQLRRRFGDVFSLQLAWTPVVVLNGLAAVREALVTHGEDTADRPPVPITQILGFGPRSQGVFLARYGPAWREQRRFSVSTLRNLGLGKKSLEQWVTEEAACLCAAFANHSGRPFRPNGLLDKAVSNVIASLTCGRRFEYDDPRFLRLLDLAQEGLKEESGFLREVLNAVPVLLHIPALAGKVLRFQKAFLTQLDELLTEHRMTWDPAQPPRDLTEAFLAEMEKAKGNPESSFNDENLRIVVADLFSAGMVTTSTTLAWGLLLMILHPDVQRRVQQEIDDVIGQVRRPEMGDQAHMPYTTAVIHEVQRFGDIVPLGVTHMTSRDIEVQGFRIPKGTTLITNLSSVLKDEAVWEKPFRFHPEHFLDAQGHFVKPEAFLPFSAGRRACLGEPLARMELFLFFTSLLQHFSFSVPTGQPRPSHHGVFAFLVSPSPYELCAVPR

T1: Rluc-HO-1 (heme oxygenase 1 with an N-terminal Rluc tag) (human) (UniProt P09601)
T1 sequence: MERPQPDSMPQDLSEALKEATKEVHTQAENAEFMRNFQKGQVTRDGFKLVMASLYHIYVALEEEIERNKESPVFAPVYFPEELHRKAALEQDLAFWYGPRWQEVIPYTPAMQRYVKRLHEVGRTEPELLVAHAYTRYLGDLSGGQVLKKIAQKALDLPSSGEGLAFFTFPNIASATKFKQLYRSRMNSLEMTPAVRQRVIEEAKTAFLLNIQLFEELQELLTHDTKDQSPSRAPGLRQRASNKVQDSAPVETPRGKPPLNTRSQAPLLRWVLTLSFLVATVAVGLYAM

T2: CYP1A2-GFP (rabbit cytochrome P450 1A2 with a C-terminal GFP2 tag) (rabbit) (UniProt P00187)
T2 sequence: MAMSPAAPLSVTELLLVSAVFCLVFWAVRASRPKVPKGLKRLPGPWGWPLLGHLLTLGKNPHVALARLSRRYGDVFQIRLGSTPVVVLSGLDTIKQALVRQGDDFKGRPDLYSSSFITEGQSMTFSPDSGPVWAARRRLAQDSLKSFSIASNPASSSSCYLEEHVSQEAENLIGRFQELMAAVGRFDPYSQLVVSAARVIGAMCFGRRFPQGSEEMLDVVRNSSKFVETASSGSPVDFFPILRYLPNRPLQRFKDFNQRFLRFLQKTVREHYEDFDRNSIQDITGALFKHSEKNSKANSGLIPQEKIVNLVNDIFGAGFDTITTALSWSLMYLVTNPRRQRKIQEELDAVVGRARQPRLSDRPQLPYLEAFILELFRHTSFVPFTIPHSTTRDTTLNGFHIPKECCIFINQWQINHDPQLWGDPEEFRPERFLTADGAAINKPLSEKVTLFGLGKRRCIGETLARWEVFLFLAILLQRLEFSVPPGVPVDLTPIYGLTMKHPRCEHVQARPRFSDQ

T3: POR-Rluc (NADPH-cytochrome P450 reductase with a C-terminal Rluc tag) (human) (UniProt P16435)
T3 sequence: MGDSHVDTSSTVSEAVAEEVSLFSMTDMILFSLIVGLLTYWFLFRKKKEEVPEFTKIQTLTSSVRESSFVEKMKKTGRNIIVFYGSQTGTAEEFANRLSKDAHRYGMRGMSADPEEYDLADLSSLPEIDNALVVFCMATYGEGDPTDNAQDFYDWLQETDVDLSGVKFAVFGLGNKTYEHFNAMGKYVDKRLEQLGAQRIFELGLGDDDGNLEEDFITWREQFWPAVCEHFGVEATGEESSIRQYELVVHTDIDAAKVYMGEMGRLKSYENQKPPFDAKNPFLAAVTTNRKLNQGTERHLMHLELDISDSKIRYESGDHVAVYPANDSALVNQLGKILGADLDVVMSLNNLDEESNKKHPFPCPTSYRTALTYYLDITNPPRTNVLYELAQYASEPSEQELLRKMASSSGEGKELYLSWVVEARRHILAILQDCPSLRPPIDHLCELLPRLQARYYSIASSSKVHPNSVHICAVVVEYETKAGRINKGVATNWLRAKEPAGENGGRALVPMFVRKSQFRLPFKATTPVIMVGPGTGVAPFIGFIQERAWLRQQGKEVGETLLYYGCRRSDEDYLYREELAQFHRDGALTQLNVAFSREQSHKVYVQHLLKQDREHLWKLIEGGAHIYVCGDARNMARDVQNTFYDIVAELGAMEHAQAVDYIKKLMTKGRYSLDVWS


Tests used:
[1] = biological target: T1, Rluc-HO-1 (heme oxygenase 1 with an N-terminal Rluc tag) (human); test: FRET or BRET; BRET screen in living HEK 293T/17 cells, 48 h after transfection; GFP-tagged P450 expressed 15- to 30-fold above Rluc-tagged HO-1 to approach BRETmax; coelenterazine 400A
[2] = biological target: T2, CYP1A2-GFP (rabbit cytochrome P450 1A2 with a C-terminal GFP2 tag) (rabbit); test: FRET or BRET; BRET of a tagged pair in living HEK 293T/17 cells with a cotransfected untagged third protein (500 ng POR DNA, 500 ng or 2000 ng HO-1 DNA, 2 ug CYP1A2 DNA), 24 h after transfection, compared with the pair alone
[3] = biological target: T2, CYP1A2-GFP (rabbit cytochrome P450 1A2 with a C-terminal GFP2 tag) (rabbit); test: FRET or BRET; BRET saturation curves in living HEK 293T/17 cells, 24 h after transfection, over a range of GFP-to-Rluc ratios at like total expression, fit to a hyperbola; for CYP1A2-GFP with Rluc-HO-1 also at a fixed ratio (>38:1) over a range of DNA amounts; coelenterazine 400A
[4] = biological target: T1, Rluc-HO-1 (heme oxygenase 1 with an N-terminal Rluc tag) (human); test: as above
[5] = biological target: T3, POR-Rluc (NADPH-cytochrome P450 reductase with a C-terminal Rluc tag) (human); test: as above

Row | Molecule | binding [1] | binding [5] | also measured
1 | CYP2D6-GFP (human cytochrome P450 2D6 with a C-terminal GFP2 tag) (from UniProt P10635 1-497) (enzyme) | binds | – | –
2 | CYP1A1-GFP (human cytochrome P450 1A1 with a C-terminal GFP2 tag) (enzyme, UniProt P04798 1-512) MLFPISMSATEFLLASVIFCLVFWVIRASRPQVPKGLKNPPGPWGWPLIGHMLTLGKNPHLALSRMSQQYGDVLQIRIGSTPVVVLSGLDTIRQALVRQGDDFKGRPDLYTFTLISNGQSMSFSPDSGPVWAARRRLAQNGLKSFSIASDPASSTSCYLEEHVSKEAEVLISTLQELMAGPGHFNPYRYVVVSVTNVICAICFGRRYDHNHQELLSLVNLNNNFGEVVGSGNPADFIPILRYLPNPSLNAFKDLNEKFYSFMQKMVKEHYKTFEKGHIRDITDSLIEHCQEKQLDENANVQLSDEKIINIVLDLFGAGFDTVTTAISWSLMYLVMNPRVQRKIQEELDTVIGRSRRPRLSDRSHLPYMEAFILETFRHSSFVPFTIPHSTTRDTSLKGFYIPKGRCVFVNQWQINHDQKLWVNPSEFLPERFLTPDGAIDKVLSEKVIIFGMGKRKCIGETIARWEVFLFLAILLQRVEFSVPLGVKVDMTPIYGLTMKHACCEHFQMQLRS | binds | – | –
3 | Unlabeled HO-1 (untagged heme oxygenase 1) (enzyme, UniProt P09601 1-288) MERPQPDSMPQDLSEALKEATKEVHTQAENAEFMRNFQKGQVTRDGFKLVMASLYHIYVALEEEIERNKESPVFAPVYFPEELHRKAALEQDLAFWYGPRWQEVIPYTPAMQRYVKRLHEVGRTEPELLVAHAYTRYLGDLSGGQVLKKIAQKALDLPSSGEGLAFFTFPNIASATKFKQLYRSRMNSLEMTPAVRQRVIEEAKTAFLLNIQLFEELQELLTHDTKDQSPSRAPGLRQRASNKVQDSAPVETPRGKPPLNTRSQAPLLRWVLTLSFLVATVAVGLYAM | – | – | binding [2]: binds
4 | CYP1A2-GFP (rabbit cytochrome P450 1A2 with a C-terminal GFP2 tag) (enzyme, UniProt P00187 1-516) MAMSPAAPLSVTELLLVSAVFCLVFWAVRASRPKVPKGLKRLPGPWGWPLLGHLLTLGKNPHVALARLSRRYGDVFQIRLGSTPVVVLSGLDTIKQALVRQGDDFKGRPDLYSSSFITEGQSMTFSPDSGPVWAARRRLAQDSLKSFSIASNPASSSSCYLEEHVSQEAENLIGRFQELMAAVGRFDPYSQLVVSAARVIGAMCFGRRFPQGSEEMLDVVRNSSKFVETASSGSPVDFFPILRYLPNRPLQRFKDFNQRFLRFLQKTVREHYEDFDRNSIQDITGALFKHSEKNSKANSGLIPQEKIVNLVNDIFGAGFDTITTALSWSLMYLVTNPRRQRKIQEELDAVVGRARQPRLSDRPQLPYLEAFILELFRHTSFVPFTIPHSTTRDTTLNGFHIPKECCIFINQWQINHDPQLWGDPEEFRPERFLTADGAAINKPLSEKVTLFGLGKRRCIGETLARWEVFLFLAILLQRLEFSVPPGVPVDLTPIYGLTMKHPRCEHVQARPRFSDQ | binds | binds | binding [3]: binds; binding [4]: binds
5 | GFP-HO-1 (heme oxygenase 1 with an N-terminal GFP2 tag) (enzyme, UniProt P09601 1-288) MERPQPDSMPQDLSEALKEATKEVHTQAENAEFMRNFQKGQVTRDGFKLVMASLYHIYVALEEEIERNKESPVFAPVYFPEELHRKAALEQDLAFWYGPRWQEVIPYTPAMQRYVKRLHEVGRTEPELLVAHAYTRYLGDLSGGQVLKKIAQKALDLPSSGEGLAFFTFPNIASATKFKQLYRSRMNSLEMTPAVRQRVIEEAKTAFLLNIQLFEELQELLTHDTKDQSPSRAPGLRQRASNKVQDSAPVETPRGKPPLNTRSQAPLLRWVLTLSFLVATVAVGLYAM | – | binds | –
